# Drug screen on melanoma cell lines: cell count

Data from the primary screen of doi:10.1371/journal.pone.0140310, rounded.

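Human melanoma cell lines in 1,536-well plates were treated with a pair of drugs for 72 h, then fixed, stained and imaged. The read-out is cell count (nuclei) in % of the DMSO control; lower values mean stronger growth inhibition or killing. Every drug was used at one fixed concentration, the lower of two screened (a fifth of the higher). No replicate spread is given; individual values may be noisy.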
Only some of the drugs and lines screened are listed, without regard to their results.
An entry leaves out what has no value listed here.
A dash means that no value is listed here.

Drugs:
fingolimod, 2000 nM: CCCCCCCCc1ccc(CCC(N)(CO)CO)cc1
nutlin-3, 100 nM: COc1ccc(C2=N[C@@H](c3ccc(Cl)cc3)[C@@H](c3ccc(Cl)cc3)N2C(=O)N2CCNC(=O)C2)c(OC(C)C)c1
KU-55933, 1000 nM: O=c1cc(-c2cccc3c2Sc2ccccc2S3)oc(N2CCOCC2)c1
veliparib, 1400 nM: C[C@]1(c2nc3c(C(N)=O)cccc3[nH]2)CCCN1
tozasertib, 6 nM: Cc1cc(Nc2cc(N3CCN(C)CC3)nc(Sc3ccc(NC(=O)C4CC4)cc3)n2)n[nH]1
ABT-263, 400 nM: CC1(C)CCC(c2ccc(Cl)cc2)=C(CN2CCN(c3ccc(C(=O)NS(=O)(=O)c4ccc(N[C@H](CCN5CCOCC5)CSc5ccccc5)c(S(=O)(=O)C(F)(F)F)c4)cc3)CC2)C1
stibogluconate, 2000 nM: O=C(O)[C@@H]1[O][Sb](=[O])([O][Sb]2(=[O])[O][C@H]([C@H](O)CO)[C@H](O)[C@H](C(=O)O)[O]2)[O][C@H]([C@H](O)CO)[C@@H]1O (some centres unmarked)
vincristine, 0.1 nM: CC[C@]1(O)C[C@H]2CN(CCc3c([nH]c4ccccc34)[C@@](C(=O)OC)(c3cc4c(cc3OC)N(C=O)[C@H]3[C@@](O)(C(=O)OC)[C@H](OC(C)=O)[C@]5(CC)C=CCN6CC[C@]43[C@@H]65)C2)C1
pazopanib, 400 nM: Cc1ccc(Nc2nccc(N(C)c3ccc4c(C)n(C)nc4c3)n2)cc1S(N)(=O)=O
nilotinib, 200 nM: Cc1cn(-c2cc(NC(=O)c3ccc(C)c(Nc4nccc(-c5cccnc5)n4)c3)cc(C(F)(F)F)c2)cn1
CHIR-265, 80 nM: Cn1c(Nc2ccc(C(F)(F)F)cc2)nc2cc(Oc3ccnc(-c4ncc(C(F)(F)F)[nH]4)c3)ccc21

Drugs	LOX IMVI	IST-MEL1	G-361	COLO 792	A101D	MEL-HO
stibogluconate + nutlin-3	56.9	99.9	62.3	101	100	90.2
fingolimod + nutlin-3	81.1	105	85.8	105	90.1	84.3
nilotinib + pazopanib	123	95.0	88.3	95.2	93.5	89.8
nilotinib + veliparib	71.3	99.6	93.9	108	101	103
KU-55933 + CHIR-265	77.5	102	61.8	42.7	56.4	71.4
tozasertib + pazopanib	85.9	109	96.9	98.7	105	96.2
fingolimod + CHIR-265	84.5	74.8	67.7	44.4	51.7	75.2
pazopanib + CHIR-265	79.2	92.0	56.0	61.4	64.0	82.4
nilotinib + stibogluconate	109	105	103	97.5	104	99.7
pazopanib + fingolimod	87.3	93.0	109	114	92.4	99.7
nutlin-3 + CHIR-265	103	93.4	72.8	45.6	56.0	93.9
vincristine + ABT-263	40.0	68.7	91.5	72.0	54.8	79.9
tozasertib + CHIR-265	110	92.1	64.1	43.7	67.6	62.5
KU-55933 + veliparib	101	99.2	80.0	121	87.8	99.0
KU-55933 + nilotinib	-	94.7	88.8	115	93.6	95.2
ABT-263 + pazopanib	50.5	71.3	85.1	50.7	48.2	69.4
nilotinib + tozasertib	121	90.3	90.1	103	85.6	103
vincristine + fingolimod	62.3	92.5	90.6	111	65.2	89.9
pazopanib + vincristine	86.3	107	117	99.2	82.4	96.7
vincristine + tozasertib	86.2	102	96.8	88.0	89.0	108
vincristine + veliparib	73.2	84.1	101	95.5	64.4	108
pazopanib + nutlin-3	68.5	106	86.0	94.1	85.3	94.3
veliparib + stibogluconate	111	103	110	118	93.5	108
CHIR-265 + stibogluconate	69.8	93.4	68.1	44.8	72.5	87.2
KU-55933 + nutlin-3	88.6	103	88.7	89.5	92.6	105

Once more, the final 3:

{"drugs": "veliparib + stibogluconate", "LOX IMVI": 111, "IST-MEL1": 103, "G-361": 110, "COLO 792": 118, "A101D": 93.5, "MEL-HO": 108}
{"drugs": "CHIR-265 + stibogluconate", "LOX IMVI": 69.8, "IST-MEL1": 93.4, "G-361": 68.1, "COLO 792": 44.8, "A101D": 72.5, "MEL-HO": 87.2}
{"drugs": "KU-55933 + nutlin-3", "LOX IMVI": 88.6, "IST-MEL1": 103, "G-361": 88.7, "COLO 792": 89.5, "A101D": 92.6, "MEL-HO": 105}